No constants are given. Whether binding was seen depends on the method and setting. Some binding calls cover weakened binding; strength is not graded here.

In the experiment the target is DR2-tag-biotin (biotinylated DR2-tag fusion protein, empty) (human). Briefly: HPLC gel filtration, detection of fluorescein at 492 nm; binding through the biotin on the tag. (In general: Size exclusion chromatography separates by hydrodynamic size, large species first.)

As for “fluorescein-labeled streptavidin (from UniProt P22629 37-163)”, the binding entry is “binds”.

(Values after patent US20050003431A1, “Monovalent, multivalent, and multimeric MHC binding domain fusion proteins and conjugates, and uses therefor” (priority 1996, published 2005).)
